{
  "source": "patent US6443892B1",
  "about": "“Sweat collecting device and methods for use and detection of tampering” (The United States of America as represented by the …, priority 2000, dated 2002)",
  "origin": "cited, not measured here",
  "data": [
    {"details": "patch applied seven days after skin contamination, normal hygiene", "values": [
      {"smiles": "CN1[C@H]2CC[C@@H]1[C@@H](C(=O)O)[C@@H](OC(=O)c1ccccc1)C2", "note": "[BE, benzoylecgonine]", "drug found in pad of sweat patch": "deposited in the pad"},
      {"smiles": "CC(=O)Oc1ccc2c3c1O[C@H]1[C@@H](OC(C)=O)C=C[C@H]4[C@@H](C2)N(C)CC[C@@]341", "note": "[heroin]", "drug found in pad of sweat patch": "deposited in the pad"},
      {"smiles": "CN[C@@H](C)Cc1ccccc1", "note": "[methamphetamine]", "drug found in pad of sweat patch": "deposited in the pad"}
    ]}
  ]
}
